According to article PMC4506129:
Where a chain is given by its changes, count along the chain named. Names may count otherwise. Results are given in words; binding and its absence hold for the method and conditions named. Each block holds one binder with its values, some of them ahead of it.

What was measured:
[1] = molecular target: T1, recombinant Bet v 1a (birch), P15494; test: 15N NMR spin relaxation; 15N spin relaxation rates of rBet v 1a in NMR; data in S1 File; both purified; details: remark: other sources report otherwise
T1 chain: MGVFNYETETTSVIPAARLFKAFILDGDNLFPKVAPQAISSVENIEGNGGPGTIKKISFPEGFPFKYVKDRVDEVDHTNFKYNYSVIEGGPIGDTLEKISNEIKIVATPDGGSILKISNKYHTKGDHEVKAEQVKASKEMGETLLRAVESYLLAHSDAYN

[2] = molecular target: T1, recombinant Bet v 1a (birch), P15494; test: dynamic light scattering; 10 μM protein in 10 mM KPi, pH 7.4, 25°C; hydrodynamic radius (RH) from the diffusion coefficient; both purified; details: remark: other sources report otherwise
[3] = molecular target: recombinant Bet v 1a S112P/R145P (birch) (UniProt P15494); test: as above

- binding [1]: no binding
- binding [2]: no binding (tested: 10 μM)
B1: recombinant Bet v 1a, P15494 1-160 (protein)
chain: T1 chain

- binding [3]: no binding (tested: 10 μM)
B2: recombinant Bet v 1a S112P/R145P (protein, UniProt P15494 1-160)
chain: T1 chain with S113P, R146P
